In patent US12023396B2, “Flavour and fragrance compositions comprising acetophenone derivatives” (Symrise AG, priority 2014, dated 2024):

Assay: Reduction of bathroom malodour, expert panel, filter paper in glass jar
Method: Fifteen Expert panellists evaluated the samples from 500 ml wide necked glass jars. One microliter of the sample (dissolved in 9 microliters of diethylphatlate) and one microliter bathroom malodour (1% solution in Triethyl citrate) were injected on different places of a filter paper. The filter paper was placed in the glass jar and left closed for >16 hours for equilibration. Malodour intensities were evaluated on scales of 1 (odourless) to 9 (very strong) with 6 being the reference of the malodour sample. Mean and standard deviation of intensity scores were calculated from three independent experiments.

CC(=O)c1ccc(O)cc1 [4-hydroxyacetophenone]
Reduction versus malodour standard (difference to malodour standard score 6.00): 3.50 scores
Malodour intensity scores Mean (n = 15) (scale 1 (odourless) to 9 (very strong), malodour reference = 6, >16 hours equilibration): 2.50
